# Data published in the supplement of paper PMC10849652.
# The chains behind the UniProt entries cited, without tags or fusion partners. Where a name states a change or a piece, a line headed by the entry shows the natural chain unless it says otherwise.
# UniProt Q14527: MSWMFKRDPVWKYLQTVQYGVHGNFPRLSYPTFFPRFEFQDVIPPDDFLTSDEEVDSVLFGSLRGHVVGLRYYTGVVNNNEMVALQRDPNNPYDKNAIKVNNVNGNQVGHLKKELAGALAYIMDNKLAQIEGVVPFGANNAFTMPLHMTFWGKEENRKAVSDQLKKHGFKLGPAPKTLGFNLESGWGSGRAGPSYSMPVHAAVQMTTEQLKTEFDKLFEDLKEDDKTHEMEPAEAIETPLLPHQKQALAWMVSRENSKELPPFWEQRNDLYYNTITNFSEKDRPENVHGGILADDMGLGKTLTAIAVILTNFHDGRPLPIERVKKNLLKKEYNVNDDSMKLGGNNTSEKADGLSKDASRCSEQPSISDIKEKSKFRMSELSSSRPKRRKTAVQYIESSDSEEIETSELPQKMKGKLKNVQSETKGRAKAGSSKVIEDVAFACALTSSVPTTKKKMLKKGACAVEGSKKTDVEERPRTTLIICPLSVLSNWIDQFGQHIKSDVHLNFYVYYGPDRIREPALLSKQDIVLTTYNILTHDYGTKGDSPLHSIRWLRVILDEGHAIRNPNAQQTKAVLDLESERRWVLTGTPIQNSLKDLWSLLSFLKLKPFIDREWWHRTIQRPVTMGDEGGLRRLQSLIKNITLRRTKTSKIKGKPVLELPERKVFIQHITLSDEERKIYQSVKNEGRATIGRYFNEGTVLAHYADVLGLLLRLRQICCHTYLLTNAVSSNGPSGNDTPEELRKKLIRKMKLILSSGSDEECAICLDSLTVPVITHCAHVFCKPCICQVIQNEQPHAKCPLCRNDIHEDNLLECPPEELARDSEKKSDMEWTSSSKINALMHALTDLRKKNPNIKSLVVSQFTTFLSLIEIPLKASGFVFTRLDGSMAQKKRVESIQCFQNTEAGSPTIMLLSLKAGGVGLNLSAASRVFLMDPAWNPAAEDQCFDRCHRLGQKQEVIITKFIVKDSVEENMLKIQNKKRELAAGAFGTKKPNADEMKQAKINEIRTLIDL
# UniProt P41252: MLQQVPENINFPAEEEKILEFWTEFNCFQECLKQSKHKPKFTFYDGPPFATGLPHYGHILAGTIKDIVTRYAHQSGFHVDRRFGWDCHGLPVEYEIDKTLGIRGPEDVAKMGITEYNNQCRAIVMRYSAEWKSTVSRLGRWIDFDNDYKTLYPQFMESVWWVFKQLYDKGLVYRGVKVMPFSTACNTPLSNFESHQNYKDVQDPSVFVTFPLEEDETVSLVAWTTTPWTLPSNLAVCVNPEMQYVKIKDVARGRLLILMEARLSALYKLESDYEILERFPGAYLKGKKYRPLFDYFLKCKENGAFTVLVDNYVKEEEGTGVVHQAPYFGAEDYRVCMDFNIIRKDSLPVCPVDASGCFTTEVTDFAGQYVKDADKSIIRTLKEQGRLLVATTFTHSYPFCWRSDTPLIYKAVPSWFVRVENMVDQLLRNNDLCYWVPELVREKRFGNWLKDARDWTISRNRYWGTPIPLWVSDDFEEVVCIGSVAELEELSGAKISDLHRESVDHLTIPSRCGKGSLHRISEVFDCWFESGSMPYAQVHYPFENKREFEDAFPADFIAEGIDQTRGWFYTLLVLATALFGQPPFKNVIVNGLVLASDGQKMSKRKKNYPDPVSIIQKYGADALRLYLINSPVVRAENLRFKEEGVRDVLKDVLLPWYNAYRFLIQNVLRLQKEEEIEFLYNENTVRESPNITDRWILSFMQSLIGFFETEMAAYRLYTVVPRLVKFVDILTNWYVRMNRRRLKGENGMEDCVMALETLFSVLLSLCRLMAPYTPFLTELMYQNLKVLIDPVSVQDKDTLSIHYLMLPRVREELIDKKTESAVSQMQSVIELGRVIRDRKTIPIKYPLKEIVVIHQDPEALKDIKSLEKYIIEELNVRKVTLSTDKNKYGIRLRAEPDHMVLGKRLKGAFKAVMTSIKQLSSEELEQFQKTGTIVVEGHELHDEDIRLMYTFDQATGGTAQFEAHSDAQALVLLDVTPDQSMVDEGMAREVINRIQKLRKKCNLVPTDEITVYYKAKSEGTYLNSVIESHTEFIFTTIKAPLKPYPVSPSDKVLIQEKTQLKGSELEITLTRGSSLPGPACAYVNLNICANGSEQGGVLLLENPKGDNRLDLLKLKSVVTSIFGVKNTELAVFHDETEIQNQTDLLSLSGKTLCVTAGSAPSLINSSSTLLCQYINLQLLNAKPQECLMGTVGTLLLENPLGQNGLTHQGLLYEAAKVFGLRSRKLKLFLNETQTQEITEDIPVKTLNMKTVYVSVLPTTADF
# UniProt P09429: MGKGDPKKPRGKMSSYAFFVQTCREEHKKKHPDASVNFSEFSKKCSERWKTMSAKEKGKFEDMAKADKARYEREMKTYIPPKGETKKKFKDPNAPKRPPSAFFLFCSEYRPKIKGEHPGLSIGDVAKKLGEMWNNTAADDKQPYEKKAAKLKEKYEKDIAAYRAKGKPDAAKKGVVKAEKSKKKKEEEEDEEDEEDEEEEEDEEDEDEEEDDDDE
# UniProt P04792, whole entry, looked up: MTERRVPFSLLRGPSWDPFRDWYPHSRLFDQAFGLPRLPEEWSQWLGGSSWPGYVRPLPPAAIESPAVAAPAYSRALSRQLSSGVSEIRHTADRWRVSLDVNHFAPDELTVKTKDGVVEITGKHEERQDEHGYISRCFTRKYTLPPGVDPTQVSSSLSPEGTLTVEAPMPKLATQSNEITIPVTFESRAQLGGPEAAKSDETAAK
# UniProt P34932: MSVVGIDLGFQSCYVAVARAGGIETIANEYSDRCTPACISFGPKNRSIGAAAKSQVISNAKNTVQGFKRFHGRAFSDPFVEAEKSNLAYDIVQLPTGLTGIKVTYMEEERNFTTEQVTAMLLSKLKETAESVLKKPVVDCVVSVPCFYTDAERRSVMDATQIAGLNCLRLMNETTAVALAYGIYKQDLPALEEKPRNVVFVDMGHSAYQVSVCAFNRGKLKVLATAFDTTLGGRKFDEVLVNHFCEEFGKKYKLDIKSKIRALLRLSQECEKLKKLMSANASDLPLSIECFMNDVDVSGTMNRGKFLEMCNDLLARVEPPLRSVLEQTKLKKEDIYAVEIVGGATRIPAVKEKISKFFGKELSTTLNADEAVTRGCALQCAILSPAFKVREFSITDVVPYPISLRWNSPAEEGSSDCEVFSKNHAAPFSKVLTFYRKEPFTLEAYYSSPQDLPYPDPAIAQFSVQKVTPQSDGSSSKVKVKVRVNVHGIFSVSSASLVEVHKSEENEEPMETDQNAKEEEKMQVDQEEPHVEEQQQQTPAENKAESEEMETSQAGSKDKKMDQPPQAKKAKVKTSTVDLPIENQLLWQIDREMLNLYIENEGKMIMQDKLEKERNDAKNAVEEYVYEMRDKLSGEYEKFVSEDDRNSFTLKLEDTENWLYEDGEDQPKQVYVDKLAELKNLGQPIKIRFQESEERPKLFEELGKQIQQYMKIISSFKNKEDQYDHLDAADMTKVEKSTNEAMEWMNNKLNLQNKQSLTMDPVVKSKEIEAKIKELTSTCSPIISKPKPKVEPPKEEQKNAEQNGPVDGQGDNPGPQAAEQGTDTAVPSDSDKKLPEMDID
# UniProt Q96JB3: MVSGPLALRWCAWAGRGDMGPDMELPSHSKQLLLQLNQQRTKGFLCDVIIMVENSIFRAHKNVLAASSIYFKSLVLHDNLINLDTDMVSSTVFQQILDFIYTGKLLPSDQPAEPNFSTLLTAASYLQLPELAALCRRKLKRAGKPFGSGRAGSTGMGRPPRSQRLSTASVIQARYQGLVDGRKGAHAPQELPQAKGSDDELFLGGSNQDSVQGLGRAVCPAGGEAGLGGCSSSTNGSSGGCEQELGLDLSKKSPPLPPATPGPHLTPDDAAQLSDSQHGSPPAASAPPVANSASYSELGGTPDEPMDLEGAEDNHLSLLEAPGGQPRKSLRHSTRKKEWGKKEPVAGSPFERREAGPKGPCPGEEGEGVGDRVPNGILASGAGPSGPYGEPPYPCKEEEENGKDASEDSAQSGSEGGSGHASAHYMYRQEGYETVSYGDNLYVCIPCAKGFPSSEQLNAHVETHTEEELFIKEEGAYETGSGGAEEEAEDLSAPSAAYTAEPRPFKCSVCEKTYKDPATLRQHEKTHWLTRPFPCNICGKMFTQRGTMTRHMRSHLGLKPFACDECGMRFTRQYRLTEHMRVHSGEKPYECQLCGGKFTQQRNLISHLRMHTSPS
# UniProt Q53T59: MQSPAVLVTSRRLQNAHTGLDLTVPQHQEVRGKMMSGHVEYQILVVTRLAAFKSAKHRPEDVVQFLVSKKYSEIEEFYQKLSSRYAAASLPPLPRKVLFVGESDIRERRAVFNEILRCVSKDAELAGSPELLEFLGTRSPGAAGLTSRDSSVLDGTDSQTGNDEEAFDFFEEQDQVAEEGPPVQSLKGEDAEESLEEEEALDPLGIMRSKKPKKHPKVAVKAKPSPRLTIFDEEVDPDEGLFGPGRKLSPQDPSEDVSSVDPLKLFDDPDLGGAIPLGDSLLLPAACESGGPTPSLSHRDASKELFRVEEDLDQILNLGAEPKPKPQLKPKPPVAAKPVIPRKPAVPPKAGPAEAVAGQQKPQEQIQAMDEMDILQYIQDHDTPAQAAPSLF
# UniProt Q03014: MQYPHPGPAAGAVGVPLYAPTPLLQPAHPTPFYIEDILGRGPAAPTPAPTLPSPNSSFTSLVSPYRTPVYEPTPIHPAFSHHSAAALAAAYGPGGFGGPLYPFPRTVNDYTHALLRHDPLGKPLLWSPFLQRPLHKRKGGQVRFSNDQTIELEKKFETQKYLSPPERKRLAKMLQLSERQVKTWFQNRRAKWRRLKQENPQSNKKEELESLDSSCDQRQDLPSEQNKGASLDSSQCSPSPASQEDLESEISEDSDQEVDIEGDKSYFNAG
# UniProt O00291: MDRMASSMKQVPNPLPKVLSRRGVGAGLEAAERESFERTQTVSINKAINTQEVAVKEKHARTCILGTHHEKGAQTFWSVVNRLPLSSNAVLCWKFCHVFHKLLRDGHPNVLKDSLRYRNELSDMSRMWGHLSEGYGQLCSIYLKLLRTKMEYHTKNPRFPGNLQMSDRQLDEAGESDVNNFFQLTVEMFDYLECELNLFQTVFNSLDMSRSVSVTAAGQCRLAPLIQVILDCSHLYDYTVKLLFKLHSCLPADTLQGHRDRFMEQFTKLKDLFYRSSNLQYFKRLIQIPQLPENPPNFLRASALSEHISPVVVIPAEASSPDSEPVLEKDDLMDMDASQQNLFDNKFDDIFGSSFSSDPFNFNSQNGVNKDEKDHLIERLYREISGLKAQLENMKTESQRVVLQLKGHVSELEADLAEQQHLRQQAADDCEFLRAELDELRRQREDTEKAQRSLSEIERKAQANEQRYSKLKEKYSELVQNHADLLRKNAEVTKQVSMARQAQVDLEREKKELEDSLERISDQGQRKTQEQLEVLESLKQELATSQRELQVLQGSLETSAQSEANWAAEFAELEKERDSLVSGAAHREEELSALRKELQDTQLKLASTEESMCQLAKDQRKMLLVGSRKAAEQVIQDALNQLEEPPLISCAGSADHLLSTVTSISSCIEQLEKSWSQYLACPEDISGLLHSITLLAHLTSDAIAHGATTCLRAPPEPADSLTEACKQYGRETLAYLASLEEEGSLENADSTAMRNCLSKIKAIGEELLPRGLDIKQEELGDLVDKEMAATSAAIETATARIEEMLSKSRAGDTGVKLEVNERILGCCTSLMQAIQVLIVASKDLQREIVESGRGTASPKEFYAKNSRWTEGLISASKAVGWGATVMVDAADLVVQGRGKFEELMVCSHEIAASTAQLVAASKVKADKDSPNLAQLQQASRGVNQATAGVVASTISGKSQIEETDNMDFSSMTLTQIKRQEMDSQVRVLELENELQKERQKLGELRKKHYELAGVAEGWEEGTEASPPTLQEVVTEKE
# UniProt O15347: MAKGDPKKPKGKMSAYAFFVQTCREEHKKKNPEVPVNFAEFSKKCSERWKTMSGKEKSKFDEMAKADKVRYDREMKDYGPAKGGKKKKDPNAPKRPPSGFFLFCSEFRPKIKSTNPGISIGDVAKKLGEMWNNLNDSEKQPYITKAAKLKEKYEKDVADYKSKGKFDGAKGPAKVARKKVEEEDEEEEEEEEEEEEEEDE
# UniProt P07910: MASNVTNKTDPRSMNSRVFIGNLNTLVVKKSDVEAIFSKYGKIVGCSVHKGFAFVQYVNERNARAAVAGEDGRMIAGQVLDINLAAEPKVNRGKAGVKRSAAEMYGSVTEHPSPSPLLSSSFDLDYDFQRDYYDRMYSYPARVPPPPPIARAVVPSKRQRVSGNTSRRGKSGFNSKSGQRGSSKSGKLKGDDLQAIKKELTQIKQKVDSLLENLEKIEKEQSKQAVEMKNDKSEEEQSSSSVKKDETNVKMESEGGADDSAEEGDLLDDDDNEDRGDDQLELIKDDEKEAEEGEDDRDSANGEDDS
# UniProt Q6DN03, whole entry, looked up: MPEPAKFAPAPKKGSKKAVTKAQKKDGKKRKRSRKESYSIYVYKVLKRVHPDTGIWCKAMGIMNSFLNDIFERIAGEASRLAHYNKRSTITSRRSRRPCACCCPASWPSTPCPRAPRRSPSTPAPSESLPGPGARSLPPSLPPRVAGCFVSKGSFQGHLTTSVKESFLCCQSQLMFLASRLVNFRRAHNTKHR
# This is one part of the list.
# Legend:
# Assay in all cases: log2 fold change, soluble protein after heating vs DMSO (PISA); higher = thermal stabilisation; K562 cells, 10 uM, 30 min; active = over 0.2 and 3.5 SD of the protein, either way, in both replicates (recomputed)
# [1] = compound: CN1CCN(CCOc2cc(OC3CCOCC3)c3c(Nc4c(Cl)ccc5c4OCO5)ncnc3c2)CC1 [saracatinib]
# Procedure, shortened: (§1)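 Quantification of soluble protein used TMTpro 16plex LC-MS/MS, with channel sums equalised. Samples were the supernatant after 21,000xg for 90 min of pooled aliquots from K562 cells (2×10^6 cells/mL) treated with 10 μM compound for 30 min, heated for 3 min over 48°C-58°C, and extracted in PBS with 0.5% NP-40 at 4°C. Values, from duplicates, describe thermal stability against control samples on a log2 fold-change scale.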
# [2] = compound: CN1CCN(c2nc(C3=C(c4c[nH]c5ccccc45)C(=O)NC3=O)c3ccccc3n2)CC1 [sotrastaurin]
# Procedure, shortened: as §1
# [3] = compound: CN1CCc2c(c3ccccc3n2Cc2ccc(C(=O)NO)cc2)C1 [Tubastatin A]
# Procedure, shortened: as §1
# [4] = compound: CNC(=O)C1=CC=CC=C1NC2=NC(=NC=C2Cl)NC3=C(C=C(C=C3)N4CCOCC4)OC
# Procedure, shortened: as §1
# [5] = compound: CNC(=O)c1ccc(Nc2ncc(C(F)(F)F)c(NCc3nccnc3N(C)S(C)(=O)=O)n2)cc1 [defactinib]
# Procedure, shortened: as §1
# [6] = compound: CNCc1ccc(-c2[nH]c3cc(F)cc4c3c2CCNC4=O)cc1 [rucaparib]
# Procedure, shortened: as §1
# [7] = compound: CNc1nc(-c2ccc3c(N)n[nH]c3c2)cc(N2C[C@@H](C(=O)NC3CCCCC3)CC[C@H]2C)n1
# Procedure, shortened: as §1
# [8] = compound: COC(=O)N[C@@H](C)CNc1nccc(-c2cn(C(C)C)nc2-c2cc(Cl)cc(NS(C)(=O)=O)c2F)n1 [encorafenib]
# Procedure, shortened: as §1
# [9] = compound: COC(=O)[C@H](CCSC)NC(=O)C1=C(C=C(C=C1)NC[C@H](CS)N)C2=CC=CC=C2
# Procedure, shortened: as §1
# [10] = compound: CN1CC[C@H](c2c(O)cc(O)c3c(=O)cc(-c4ccccc4Cl)oc23)[C@H](O)C1 [alvocidib]
# Procedure, shortened: as §1
Target,log2 fold change [1],log2 fold change [2],log2 fold change [3],log2 fold change [4],log2 fold change [5],log2 fold change [6],log2 fold change [7],log2 fold change [8],log2 fold change [9],log2 fold change [10]
HLTF (UniProt Q14527),inactive: -0.012,inactive: 0.019,inactive: 0.081,inactive: -0.03,inactive: -0.122,inactive: -0.033,inactive: -0.074,inactive: -0.195,inactive: -0.027,–
IARS (UniProt P41252),inactive: -0.143,inactive: -0.055,inactive: 0.04,inactive: -0.003,inactive: 0.242,inactive: 0.439,inactive: 0.125,inactive: 0.213,inactive: 0.027,inactive: 0.237
HMGB1 (UniProt P09429),inactive: 0.01,inactive: 0.013,inactive: -0.038,inactive: 0.017,inactive: 0.006,inactive: 0.054,inactive: -0.026,inactive: -0.022,inactive: 0.035,inactive: -0.044
IBTK (UniProt Q9P2D0),inactive: -0.039,inactive: -0.23,inactive: -0.026,–,–,inactive: 0.512,inactive: -0.027,inactive: -0.108,–,inactive: 0.176
IBA57 (UniProt Q5T440),inactive: 0.019,inactive: -0.001,inactive: 0,inactive: 0.059,inactive: -0.025,inactive: -0.021,inactive: -0.051,inactive: 0,inactive: 0.007,inactive: -0.072
HSD17B12 (UniProt Q53GQ0),inactive: -0.037,inactive: 0.151,inactive: -0.007,inactive: 0.005,inactive: -0.024,inactive: -0.043,inactive: 0.038,inactive: 0.027,inactive: 0.013,–
HSPB1 (UniProt P04792),inactive: -0.117,inactive: -0.077,inactive: -0.008,inactive: 0.028,inactive: -0.023,inactive: 0.092,inactive: 0.015,inactive: 0.008,inactive: -0.027,inactive: -0.013
"HUWE1, A0A087X1S3",inactive: -0.272,inactive: -0.037,inactive: 0,inactive: -0.053,–,inactive: 0.018,inactive: 0.059,inactive: 0.012,–,inactive: -0.013
HSPA4 (UniProt P34932),inactive: 0.021,inactive: -0.006,inactive: -0.023,inactive: 0.021,inactive: -0.049,inactive: -0.046,inactive: 0.001,inactive: 0.018,inactive: 0.013,inactive: -0.046
ICMT (UniProt O60725),inactive: -0.105,inactive: 0.025,inactive: -0.065,inactive: 0.061,inactive: -0.034,inactive: 0.037,inactive: 0.235,inactive: -0.144,inactive: 0.062,–
HIC2 (UniProt Q96JB3),inactive: -0.152,inactive: -0.236,inactive: -0.034,inactive: -0.011,inactive: -0.008,inactive: 0.142,inactive: -0.019,inactive: 0.045,inactive: 0.089,–
HS1BP3 (UniProt Q53T59),inactive: 0.107,inactive: -0.078,–,inactive: -0.005,inactive: -0.066,inactive: -0.038,active: 0.371,inactive: 0.037,inactive: -0.175,–
HHEX (UniProt Q03014),inactive: 0.095,inactive: -0.068,inactive: 0.126,inactive: 0.035,inactive: -0.173,inactive: 0.04,inactive: -0.011,inactive: -0.061,inactive: 0.651,–
HNRNPK isoform 3 (UniProt P61978),inactive: 0.04,inactive: 0.059,inactive: 0.034,inactive: -0.05,inactive: 0.096,inactive: 0.032,inactive: -0.035,inactive: -0.041,inactive: -0.028,–
HIP1 (UniProt O00291),inactive: 0.078,inactive: -0.079,inactive: 0.038,inactive: 0.008,inactive: -0.001,inactive: 0.065,inactive: -0.024,inactive: -0.048,inactive: -0.001,–
HNRNPUL1 (UniProt M0R247),inactive: -0.327,inactive: 0.128,inactive: -0.054,inactive: -0.145,–,inactive: 0.09,inactive: -0.431,inactive: -0.086,–,–

Target,log2 fold change [1],log2 fold change [2],log2 fold change [3],log2 fold change [4],log2 fold change [5],log2 fold change [6],log2 fold change [7],log2 fold change [8],log2 fold change [9],log2 fold change [10]
HMGB3 (UniProt O15347),inactive: 0.05,inactive: 0.031,inactive: 0,inactive: -0.076,inactive: 0.089,inactive: 0.008,inactive: -0.073,inactive: -0.063,inactive: 0.021,–
HIST2H2BF isoform 2 (UniProt Q5QNW6),inactive: -0.084,inactive: 0.074,inactive: 0.093,inactive: -0.044,inactive: 0.313,inactive: 0.325,inactive: 0.039,inactive: 0.015,inactive: 0.05,–
HOXD9 (UniProt P28356),inactive: -0.036,–,–,inactive: 0.079,inactive: -0.012,inactive: 0.099,inactive: -0.02,inactive: 0.276,inactive: -0.003,inactive: -0.238
ICAM1 (UniProt P05362),inactive: 0.035,inactive: 0.07,inactive: -0.03,inactive: -0.073,inactive: -0.026,inactive: 0.049,inactive: 0.099,inactive: -0.004,inactive: 0.043,–
HNRNPC isoform 2 (UniProt P07910),inactive: -0.067,inactive: -0.035,inactive: 0.219,inactive: 0.033,inactive: 0.054,inactive: 0.392,inactive: 0.115,inactive: 0.148,inactive: 0.071,–
HIST2H3A (UniProt Q71DI3),inactive: -0.196,inactive: 0.063,inactive: 0.17,inactive: -0.166,inactive: 0.339,inactive: 0.306,inactive: 0.185,inactive: -0.063,inactive: 0.093,–
HSPA8 (UniProt P11142),inactive: 0.067,inactive: 0.007,inactive: -0.019,inactive: 0.139,inactive: 0.006,inactive: -0.029,inactive: -0.002,inactive: -0.009,inactive: 0.042,–
HIST2H2BC (UniProt Q6DN03),inactive: -0.123,inactive: 0.179,inactive: 0.16,inactive: -0.101,inactive: 0.535,inactive: 0.464,inactive: 0.01,inactive: 0.104,inactive: 0.074,–
HNRNPUL1 (UniProt Q9BUJ2),inactive: -0.016,inactive: 0.039,inactive: 0,inactive: 0.008,inactive: 0.018,inactive: 0.075,inactive: 0.034,inactive: 0.063,inactive: -0.011,–
HSPA8 (UniProt E9PK54),inactive: -0.058,inactive: -0.054,inactive: -0.003,inactive: 0.072,inactive: -0.012,inactive: -0.287,inactive: -0.033,inactive: 0.051,inactive: 0.048,–
HMGCR isoform 3 (UniProt P04035),inactive: 0.002,inactive: -0.287,active: 0.33,inactive: -0.133,inactive: -0.004,inactive: -0.208,inactive: -0.024,inactive: 0.094,inactive: 0.146,–
HMG20A (UniProt Q9NP66),inactive: 0.038,inactive: -0.106,inactive: 0.018,inactive: 0.005,inactive: 0.029,inactive: -0.323,inactive: -0.015,inactive: -0.109,inactive: -0.009,–
HRC (UniProt P23327),inactive: 0.063,inactive: 0.057,inactive: -0.125,inactive: 0.009,inactive: -0.011,inactive: 0.01,inactive: -0.057,inactive: -0.066,inactive: 0.043,–
HRAS (UniProt P01112),inactive: 0.002,inactive: 0.091,inactive: 0.014,inactive: -0.015,inactive: -0.012,inactive: 0.072,inactive: 0.077,inactive: -0.042,inactive: 0.062,–
HOMER1 (UniProt Q86YM7),inactive: 0.032,inactive: 0.045,inactive: -0.084,inactive: 0.021,inactive: 0.015,inactive: 0.021,inactive: 0.007,inactive: 0.04,inactive: -0.047,–

# Laid out differently: results already given.
Target	log2 fold change [1]	log2 fold change [2]	log2 fold change [3]	log2 fold change [4]	log2 fold change [5]	log2 fold change [6]	log2 fold change [7]	log2 fold change [8]	log2 fold change [9]	log2 fold change [10]
HSPA8 (UniProt P11142)	inactive: 0.067	inactive: 0.007	inactive: -0.019	inactive: 0.139	inactive: 0.006	inactive: -0.029	inactive: -0.002	inactive: -0.009	inactive: 0.042	–
HIST2H2BC (UniProt Q6DN03)	inactive: -0.123	inactive: 0.179	inactive: 0.16	inactive: -0.101	inactive: 0.535	inactive: 0.464	inactive: 0.01	inactive: 0.104	inactive: 0.074	–
